Binding data for 2 molecules are collected here from article PMC7324386.

No constants are given. Whether binding was seen depends on the method and setting. In cells and extracts the contact can be indirect. These calls come from enrichment with a bait or labelling near it, and not all partners need be listed. Tags and fused reporters may be left off the sequences shown.

In assay [1] the target is T1, PUX5-BioID2-HA (Arabidopsis thaliana) (UniProt Q7Y175).
T1 sequence: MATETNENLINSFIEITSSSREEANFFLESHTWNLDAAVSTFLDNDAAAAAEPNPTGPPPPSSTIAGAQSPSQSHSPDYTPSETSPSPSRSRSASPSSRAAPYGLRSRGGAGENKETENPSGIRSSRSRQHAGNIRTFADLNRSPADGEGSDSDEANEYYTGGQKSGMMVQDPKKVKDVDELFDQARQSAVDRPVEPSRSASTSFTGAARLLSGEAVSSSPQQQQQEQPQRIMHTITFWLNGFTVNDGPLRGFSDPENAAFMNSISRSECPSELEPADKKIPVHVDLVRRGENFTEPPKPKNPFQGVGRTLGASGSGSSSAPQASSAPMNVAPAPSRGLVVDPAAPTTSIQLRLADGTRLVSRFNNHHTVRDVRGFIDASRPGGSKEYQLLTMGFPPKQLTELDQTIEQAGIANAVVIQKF
Put plainly: proximity labelling; BioID2-tagged bait in 10-day-old transgenic Arabidopsis seedlings, 50 µM biotin for 16 h at room temperature, streptavidin-coated beads, label-free quantitative MS, ratiometric analysis against controls; the SUN1 bait also with MG132 treatment.

The target of assay [2] is T2, HA-BioID2-SUN1 (Arabidopsis thaliana) (UniProt Q9FF75).
T2 sequence: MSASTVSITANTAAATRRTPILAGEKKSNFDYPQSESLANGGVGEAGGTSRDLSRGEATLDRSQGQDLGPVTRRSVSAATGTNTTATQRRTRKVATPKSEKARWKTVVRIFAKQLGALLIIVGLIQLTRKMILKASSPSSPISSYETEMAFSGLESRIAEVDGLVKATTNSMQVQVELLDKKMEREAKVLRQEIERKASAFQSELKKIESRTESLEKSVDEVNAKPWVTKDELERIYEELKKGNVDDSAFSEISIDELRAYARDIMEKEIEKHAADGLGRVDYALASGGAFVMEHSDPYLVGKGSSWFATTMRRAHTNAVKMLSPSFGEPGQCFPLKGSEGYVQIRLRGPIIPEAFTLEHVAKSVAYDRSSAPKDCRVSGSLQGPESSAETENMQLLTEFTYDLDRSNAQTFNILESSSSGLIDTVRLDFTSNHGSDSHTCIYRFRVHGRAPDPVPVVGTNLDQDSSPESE
The description is as above.

B1: PUX3 (protein, UniProt Q9SUG6 1-302)
chain: MSSKDKKLSKPTSGRTGGIRTLSDLNRRSEPDSDSDSDGPQEYFTGGEKSGMLVQDPTKEPKHDDVDEIFNQARQLGAVEGPLEHPSSSRSFTGTGRLLSGESVPTALQQPEPVIHNIIFWSNGFTVDDGPLRKLDDPENASFLDSIRKSECPKELEPVDKRAPVHVNLMRRDEKCPEKEKLKVSFQGVGRTLGGASSSTASSQSNLTDVAAVQSPLQSLVVDETLPSTSIQLRLADGTRMVAKFNNHHTVNDIRGFIEFSRPGNPNNYTLQVMGFPPKPLTDPSQTIEQAGLASSVVIQKF
For B1, the binding entry in assay [1] and in assay [2] was “binds” each time.

B2: CRWN4 (protein, UniProt Q9FLH0 1-1010)
chain: MATSSRSERFPITPSTAATNRLTITPNSRVLKSPLTEEIMWKRLKDAGFDEQSIKNRDKAALIAYIAKLESEVYDYQHNMGLLLLEKNELSSQYEEIKASVDESDLTHMREKSAYVSALAEAKKREESLKKDVGIAKECISSLEKTLHEMRAECAETKVSAGSTMSEAHVMIEDALKKLADAEAKMRAAEALQAEANRYHRIAERKLKEVESREDDLTRRLASFKSECETKENEMVIERQTLNERRKSLQQEHERLLDAQVSLNQREDHIFARSQELAELEKGLDTAKTTFEEERKAFEDKKSNLEIALALCAKREEAVSERESSLLKKEQELLVAEEKIASKESELIQNVLANQEVILRKRKSDVEAELECKSKSVEVEIESKRRAWELREVDIKQREDLVGEKEHDLEVQSRALAEKEKDITEKSFNLDEKEKNLVATEEDINRKTTMLEDEKERLRKLDLELQQSLTSLEDKRKRVDSATQKLEALKSETSELSTLEMKLKEELDDLRAQKLEMLAEADRLKVEKAKFEAEWEHIDVKREELRKEAEYITRQREAFSMYLKDERDNIKEERDALRNQHKNDVESLNREREEFMNKMVEEHSEWLSKIQRERADFLLGIEMQKRELEYCIENKREELENSSRDREKAFEQEKKLEEERIQSLKEMAEKELEHVQVELKRLDAERLEIKLDRERREREWAELKDSVEELKVQREKLETQRHMLRAERDEIRHEIEELKKLENLKVALDDMSMAKMQLSNLERSWEKVSALKQKVVSRDDELDLQNGVSTVSNSEDGYNSSMERQNGLTPSSATPFSWIKRCTNLIFKTSPEKSTLMHHYEEEGGVPSEKLKLESSRREEKAYTEGLSIAVERLEAGRKRRGNTSGDETSEPSNNKKRKHDVTQKYSDEADTQSVISSPQNVPEDKHELPSSQTQTPSGMVVISETVKITRVTCETEVTNKVTTLDCSESPSEAGRKMGEETEDGDCNQTGINASETVIHNEAATEDICT
Turning to B2, the binding result in assay [1] and in assay [2] was “binds” each time.
